{"source": "patent US4172894A", "about": "“3-Thienyl-3-methyl-4-pentyl-2-pyridyl-ketone” (Laboratories Made, S.A., priority 1977, dated 1979)", "key": {"[1]": {"test_system": "Swiss I.C.R. albino mice", "assay": "Thermal analgesia, 55° C. \"hot plate\" technique in mice", "type": "in vivo", "protocol": "The thermal analgesic effect was studied in Swiss I.C.R. albino mice. The 55° C. \"hot plate\" technique was used. Batches of 10 mice were made.\nThe products in study were administered intraperitoneally and after 30 minutes the mice were placed on the \"hot plate\", note having been made, in seconds, of the time it took them to jump. Batches of control animals were injected with only distilled water."}, "[2]": {"test_system": "Swiss I.C.R. albino mice", "assay": "Chemical analgesia, acetic acid writhing technique in mice", "type": "in vivo", "conditions": "footnote of Table III", "protocol": "The analgesic effect was studied in Swiss I.C.R. albino mice with the acetic acid writhing technique. Batches of 10 mice were made.\nThe products in study were administered intraperitoneally, and 30 minutes later 0.25 ml of 1% acetic acid were injected intraperitoneally. A batch of control animals received only the acetic acid. Twenty minutes following administration of the acetic acid, the number of writhes in each mouse is counted."}}, "note": "At least one structure is not confirmed: it was looked up by name or label, or the drawing left a doubt.", "data": [{"smiles": "CCCCCc1ccnc(C(=O)c2ccsc2)c1C", "note": "[Product I, 3-thienyl-3-methyl-4-pentyl-2-pyridyl-ketone]", "values": [{"measurement": "Signif. of Differences, jumping time, vs Dextroprop.", "setting": "[1]; 30 mg/kg, intraperitoneal, versus dextropropoxyphene 30 mg/kg", "value": "N.S."}, {"measurement": "Analgesic activity compared with dextropropoxyphene (in words), hot plate", "setting": "[1]; footnote of Table II", "value": "not significantly"}, {"measurement": "Analgesic activity compared with dextropropoxyphene (in words), writhing", "setting": "[2]", "value": "significantly superior"}]}]}
